In patent US12201593B2, “Oral pharmaceutical formulations of bitter compounds for asthma” (Aardvark Therapeutics Inc., priority 2018, dated 2025):

Test system: primary human smooth muscle (HASM) cells
Test: FLECS bronchodilator assay: single-cell contractility of HASM cells after bradykinin/carbachol-induced contraction
Format: cell-based
Conditions: given after time-point 5 following BK exposure
Source text: FIGS. 1A, 1B, and 1C show the bronchodilator assay workflow with a […] of FLECS. Each well holds ˜1,200 micro-patterns for sensing force-generation by single cells. […] The two cases represent the positive and negative controls for the assay.
An in vitro model using human airway smooth muscle cells (HASM) from both asthmatic patients and “normal” non-asthmatic humans was stimulated to contract with bradykinin.
The assay investigated bronchodilatation properties of bitter taste agonists, individually and in combination, administered to primary human smooth muscle (HASM) cells after inducing contraction with asthmatic agent bradykinin. HASM cells were obtained from asthmatic patients and “normal” or non-asthmatic patients. Each of 4 primary HASM cell lines (2 from healthy donors; 2 from asthmatic donors) were seeded on FLECSplates and were stimulated to contract via exposure to bradykinin (BK) or carbachol. […] Accordingly, at 15 minutes following exposure to BK, the cells were treated with a denatonium salt or 3-CQL for Example 1, or combinations thereof, as well as positive controls and negative controls. The cells were imaged at 5 minute intervals beginning with a baseline reading, out to 45 minutes. The measurement was attenuation of population wide BK-induced contractility by treatment of a test compound (or combination) relative to controls. […]

COc1ccc(CC(C)NCC(O)c2ccc(O)c(NC=O)c2)cc1 (stereo not shown) [formoterol, Formoterol]
effect on bradykinin-induced contraction (FIG. 1, positive control): halt and reversal in the contraction
